In paper PMC10110466 (Nature biotechnology, 2022) one finds binding data, which are given here for one molecule.

Results are given in words; binding and its absence hold for the method and conditions named.

The assay addresses T1, soluble human IL-2Rβγ complex (human, UniProt P31785 23-262; P14784 27-240, biotin).
T1 sequence (looked up) 1: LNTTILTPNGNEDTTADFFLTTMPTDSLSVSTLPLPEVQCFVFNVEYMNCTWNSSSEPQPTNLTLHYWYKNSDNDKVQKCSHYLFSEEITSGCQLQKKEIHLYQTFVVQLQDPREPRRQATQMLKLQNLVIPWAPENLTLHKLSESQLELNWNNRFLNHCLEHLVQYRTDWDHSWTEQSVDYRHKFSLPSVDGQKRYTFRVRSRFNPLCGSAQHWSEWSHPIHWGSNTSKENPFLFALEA
T1 sequence (looked up) 2: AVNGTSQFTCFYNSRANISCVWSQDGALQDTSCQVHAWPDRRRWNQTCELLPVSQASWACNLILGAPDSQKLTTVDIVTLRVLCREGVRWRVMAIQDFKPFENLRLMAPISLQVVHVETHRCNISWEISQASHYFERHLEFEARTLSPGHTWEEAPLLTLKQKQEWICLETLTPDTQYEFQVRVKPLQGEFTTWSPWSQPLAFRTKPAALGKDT
Briefly: BLI; biotinylated human IL-2Rγ on streptavidin sensors (Octet RED96), soluble hIL-2Rβ (250 nM in Fig. 1b) in solution with the analyte; analytes at 1 μM (Fig. 1b) or titrated (Extended Data Fig. 1); HBS-EP+ with non-fat dry milk; both purified.

For the molecule PKKKIQLHAEHALYDALMILNIVKTNS [Neo2A], the binding entry is given as “no binding”.
